According to PMC10712316:
These are yes or no findings as the source states them, for the method shown. In cells and extracts the contact can be indirect. Some entries that bind do so weakly or less than the wild type.

The chains behind the UniProt entries cited, without tags or fusion partners.
UniProt Q13526: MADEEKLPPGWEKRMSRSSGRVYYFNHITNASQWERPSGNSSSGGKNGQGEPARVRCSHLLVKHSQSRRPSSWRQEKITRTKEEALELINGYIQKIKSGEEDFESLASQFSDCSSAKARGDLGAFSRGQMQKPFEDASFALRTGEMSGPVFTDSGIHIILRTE
UniProt Q04206: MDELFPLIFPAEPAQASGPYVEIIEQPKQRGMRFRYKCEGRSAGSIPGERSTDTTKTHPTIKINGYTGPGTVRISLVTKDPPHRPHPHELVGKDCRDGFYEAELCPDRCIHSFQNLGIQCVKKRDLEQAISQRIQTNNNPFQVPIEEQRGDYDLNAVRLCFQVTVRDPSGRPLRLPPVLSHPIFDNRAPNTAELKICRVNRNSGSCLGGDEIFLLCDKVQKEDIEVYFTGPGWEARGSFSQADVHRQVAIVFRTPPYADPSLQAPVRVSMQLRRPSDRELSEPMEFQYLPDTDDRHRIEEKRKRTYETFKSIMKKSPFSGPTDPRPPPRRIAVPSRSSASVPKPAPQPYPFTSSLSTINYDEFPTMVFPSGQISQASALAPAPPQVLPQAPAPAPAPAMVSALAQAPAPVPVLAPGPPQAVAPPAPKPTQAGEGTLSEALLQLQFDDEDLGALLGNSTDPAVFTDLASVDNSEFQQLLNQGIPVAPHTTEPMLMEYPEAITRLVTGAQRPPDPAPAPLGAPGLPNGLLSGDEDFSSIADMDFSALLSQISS
UniProt P05412: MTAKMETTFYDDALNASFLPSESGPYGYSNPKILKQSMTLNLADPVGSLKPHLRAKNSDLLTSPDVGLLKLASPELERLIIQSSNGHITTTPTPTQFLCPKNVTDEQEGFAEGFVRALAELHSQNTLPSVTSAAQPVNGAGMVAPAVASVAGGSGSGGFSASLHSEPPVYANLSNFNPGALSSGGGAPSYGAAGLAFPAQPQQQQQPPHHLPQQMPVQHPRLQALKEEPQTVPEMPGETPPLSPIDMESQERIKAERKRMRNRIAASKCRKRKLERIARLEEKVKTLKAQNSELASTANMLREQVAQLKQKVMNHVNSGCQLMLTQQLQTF

Molecular target: GST-Pin1 (peptidyl-prolyl cis-trans isomerase NIMA-interacting 1) (UniProt Q13526)
Experiment: pull-down; glutathione-Sepharose beads with 5 ug GST or GST-Pin1 incubated with clarified lysate of HKBML cells (co-cultured with BVPs), 4°C, 3 h; 50 mM HEPES pH 7.4, 200 mM NaCl, 10% glycerol, 1% Triton X-100; three washes; immunoblot; only the target purified

| binding | Substance |
| --- | --- |
| binds | NF-κB p65 (from UniProt Q04206 1-551) |
| binds | c-Jun (from UniProt P05412 1-331) |
